These are yes or no findings as the source states them, for the method shown. Binding seen in cells or lysates may run through a third protein. A yes stands for co-enrichment or nearness to the bait. Other partners may have been found. For part of these data: No binding means not detected with the bait.
Key:
[1] = biological target: MCL1-Δ208–350-P198A (UniProt Q07820); assay: affinity purification with mass spectrometry; MCL1-Δ208–350 as bait and MCL1-Δ208–350-P198A as control, immunoprecipitated with anti-MCL1 antibodies; interactions doxorubicin-inducible
[2] = biological target: MCL1-Δ208–350 (UniProt Q07820); assay: as above

Chains of the proteins cited; added tags and fusions are not shown. Lines headed by an entry give the natural chain unless they say otherwise; changes in a name come on top. A line that says so, or that is headed by a name, gives the form on record, which may keep a tag or linker. Residues count along the entry.
MCL1-Δ208–350 (Q07820, residues 1-207): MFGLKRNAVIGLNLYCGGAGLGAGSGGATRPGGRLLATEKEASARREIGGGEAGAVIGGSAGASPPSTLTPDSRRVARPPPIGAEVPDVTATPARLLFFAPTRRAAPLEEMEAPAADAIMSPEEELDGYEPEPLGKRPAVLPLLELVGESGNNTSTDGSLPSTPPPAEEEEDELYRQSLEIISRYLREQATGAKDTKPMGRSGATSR
MCL1-Δ208–350-P198A (Q07820, form named): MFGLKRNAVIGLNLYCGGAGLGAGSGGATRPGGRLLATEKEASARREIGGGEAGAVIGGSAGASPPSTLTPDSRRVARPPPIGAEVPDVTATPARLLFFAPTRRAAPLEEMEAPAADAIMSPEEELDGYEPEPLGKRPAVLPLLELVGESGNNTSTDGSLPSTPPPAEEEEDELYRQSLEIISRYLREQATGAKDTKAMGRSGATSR
UniProt Q12905: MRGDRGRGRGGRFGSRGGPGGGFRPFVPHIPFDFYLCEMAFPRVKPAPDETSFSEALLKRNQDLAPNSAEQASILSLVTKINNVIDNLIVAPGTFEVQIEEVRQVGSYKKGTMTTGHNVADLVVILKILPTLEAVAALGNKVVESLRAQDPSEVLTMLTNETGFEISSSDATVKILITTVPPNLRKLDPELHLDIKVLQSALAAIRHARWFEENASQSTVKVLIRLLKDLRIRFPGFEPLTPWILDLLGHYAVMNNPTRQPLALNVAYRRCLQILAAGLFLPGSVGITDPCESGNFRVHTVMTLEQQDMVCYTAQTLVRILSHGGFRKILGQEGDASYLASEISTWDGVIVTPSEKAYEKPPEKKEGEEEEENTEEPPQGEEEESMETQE
UniProt P06733: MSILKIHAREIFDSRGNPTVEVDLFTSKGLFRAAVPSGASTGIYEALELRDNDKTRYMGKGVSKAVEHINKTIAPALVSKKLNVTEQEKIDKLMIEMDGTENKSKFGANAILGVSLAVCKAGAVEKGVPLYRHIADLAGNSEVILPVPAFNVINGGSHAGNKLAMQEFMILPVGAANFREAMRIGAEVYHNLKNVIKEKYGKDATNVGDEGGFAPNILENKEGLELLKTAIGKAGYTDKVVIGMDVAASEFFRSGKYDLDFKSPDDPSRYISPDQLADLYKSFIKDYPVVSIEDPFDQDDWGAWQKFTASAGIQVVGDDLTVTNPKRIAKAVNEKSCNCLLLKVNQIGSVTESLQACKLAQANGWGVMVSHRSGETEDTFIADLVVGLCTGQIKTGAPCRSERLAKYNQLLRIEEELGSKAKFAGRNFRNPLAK

In the case of “interleukin enhancer-binding factor 2 (from UniProt Q12905 1-390)”, the binding [1] is reported as “no binding”.

In the case of “alpha-enolase (from UniProt P06733 1-434) (enzyme)”, the binding [1] is reported as “no binding” and the binding [2] is reported as “binds”.

Source: PMC8766550
